Experimental data taken from PubChem BioAssay AID2662 (National Center for Advancing Translational Sciences (NCATS), 2010).
Out of some 290,000 compounds screened, about 110 (0.038%) were called active. Inconclusive results, whose numbers are uncertain, are shown with a selection of clear calls. Calls follow the shape of the dose curve; as a rule, active = well fitted inhibition curve with a large enough effect in the polarisation, with a control signal flat (not every such curve was filed as active); inconclusive = small, poorly fitted or top-dose-only effect, or effect the other way, or a change in a side signal; inactive = no such curve, though single readings can be large or run the other way; the % refers to the polarisation. A potency beside an inconclusive call is a rough fit, not a confirmed value. A note “side channel” means that the fit belongs to a control or component signal, not to the main read-out.

Chains of the proteins cited; added tags and fusions are not shown.
UniProt Q03164, whole entry, looked up: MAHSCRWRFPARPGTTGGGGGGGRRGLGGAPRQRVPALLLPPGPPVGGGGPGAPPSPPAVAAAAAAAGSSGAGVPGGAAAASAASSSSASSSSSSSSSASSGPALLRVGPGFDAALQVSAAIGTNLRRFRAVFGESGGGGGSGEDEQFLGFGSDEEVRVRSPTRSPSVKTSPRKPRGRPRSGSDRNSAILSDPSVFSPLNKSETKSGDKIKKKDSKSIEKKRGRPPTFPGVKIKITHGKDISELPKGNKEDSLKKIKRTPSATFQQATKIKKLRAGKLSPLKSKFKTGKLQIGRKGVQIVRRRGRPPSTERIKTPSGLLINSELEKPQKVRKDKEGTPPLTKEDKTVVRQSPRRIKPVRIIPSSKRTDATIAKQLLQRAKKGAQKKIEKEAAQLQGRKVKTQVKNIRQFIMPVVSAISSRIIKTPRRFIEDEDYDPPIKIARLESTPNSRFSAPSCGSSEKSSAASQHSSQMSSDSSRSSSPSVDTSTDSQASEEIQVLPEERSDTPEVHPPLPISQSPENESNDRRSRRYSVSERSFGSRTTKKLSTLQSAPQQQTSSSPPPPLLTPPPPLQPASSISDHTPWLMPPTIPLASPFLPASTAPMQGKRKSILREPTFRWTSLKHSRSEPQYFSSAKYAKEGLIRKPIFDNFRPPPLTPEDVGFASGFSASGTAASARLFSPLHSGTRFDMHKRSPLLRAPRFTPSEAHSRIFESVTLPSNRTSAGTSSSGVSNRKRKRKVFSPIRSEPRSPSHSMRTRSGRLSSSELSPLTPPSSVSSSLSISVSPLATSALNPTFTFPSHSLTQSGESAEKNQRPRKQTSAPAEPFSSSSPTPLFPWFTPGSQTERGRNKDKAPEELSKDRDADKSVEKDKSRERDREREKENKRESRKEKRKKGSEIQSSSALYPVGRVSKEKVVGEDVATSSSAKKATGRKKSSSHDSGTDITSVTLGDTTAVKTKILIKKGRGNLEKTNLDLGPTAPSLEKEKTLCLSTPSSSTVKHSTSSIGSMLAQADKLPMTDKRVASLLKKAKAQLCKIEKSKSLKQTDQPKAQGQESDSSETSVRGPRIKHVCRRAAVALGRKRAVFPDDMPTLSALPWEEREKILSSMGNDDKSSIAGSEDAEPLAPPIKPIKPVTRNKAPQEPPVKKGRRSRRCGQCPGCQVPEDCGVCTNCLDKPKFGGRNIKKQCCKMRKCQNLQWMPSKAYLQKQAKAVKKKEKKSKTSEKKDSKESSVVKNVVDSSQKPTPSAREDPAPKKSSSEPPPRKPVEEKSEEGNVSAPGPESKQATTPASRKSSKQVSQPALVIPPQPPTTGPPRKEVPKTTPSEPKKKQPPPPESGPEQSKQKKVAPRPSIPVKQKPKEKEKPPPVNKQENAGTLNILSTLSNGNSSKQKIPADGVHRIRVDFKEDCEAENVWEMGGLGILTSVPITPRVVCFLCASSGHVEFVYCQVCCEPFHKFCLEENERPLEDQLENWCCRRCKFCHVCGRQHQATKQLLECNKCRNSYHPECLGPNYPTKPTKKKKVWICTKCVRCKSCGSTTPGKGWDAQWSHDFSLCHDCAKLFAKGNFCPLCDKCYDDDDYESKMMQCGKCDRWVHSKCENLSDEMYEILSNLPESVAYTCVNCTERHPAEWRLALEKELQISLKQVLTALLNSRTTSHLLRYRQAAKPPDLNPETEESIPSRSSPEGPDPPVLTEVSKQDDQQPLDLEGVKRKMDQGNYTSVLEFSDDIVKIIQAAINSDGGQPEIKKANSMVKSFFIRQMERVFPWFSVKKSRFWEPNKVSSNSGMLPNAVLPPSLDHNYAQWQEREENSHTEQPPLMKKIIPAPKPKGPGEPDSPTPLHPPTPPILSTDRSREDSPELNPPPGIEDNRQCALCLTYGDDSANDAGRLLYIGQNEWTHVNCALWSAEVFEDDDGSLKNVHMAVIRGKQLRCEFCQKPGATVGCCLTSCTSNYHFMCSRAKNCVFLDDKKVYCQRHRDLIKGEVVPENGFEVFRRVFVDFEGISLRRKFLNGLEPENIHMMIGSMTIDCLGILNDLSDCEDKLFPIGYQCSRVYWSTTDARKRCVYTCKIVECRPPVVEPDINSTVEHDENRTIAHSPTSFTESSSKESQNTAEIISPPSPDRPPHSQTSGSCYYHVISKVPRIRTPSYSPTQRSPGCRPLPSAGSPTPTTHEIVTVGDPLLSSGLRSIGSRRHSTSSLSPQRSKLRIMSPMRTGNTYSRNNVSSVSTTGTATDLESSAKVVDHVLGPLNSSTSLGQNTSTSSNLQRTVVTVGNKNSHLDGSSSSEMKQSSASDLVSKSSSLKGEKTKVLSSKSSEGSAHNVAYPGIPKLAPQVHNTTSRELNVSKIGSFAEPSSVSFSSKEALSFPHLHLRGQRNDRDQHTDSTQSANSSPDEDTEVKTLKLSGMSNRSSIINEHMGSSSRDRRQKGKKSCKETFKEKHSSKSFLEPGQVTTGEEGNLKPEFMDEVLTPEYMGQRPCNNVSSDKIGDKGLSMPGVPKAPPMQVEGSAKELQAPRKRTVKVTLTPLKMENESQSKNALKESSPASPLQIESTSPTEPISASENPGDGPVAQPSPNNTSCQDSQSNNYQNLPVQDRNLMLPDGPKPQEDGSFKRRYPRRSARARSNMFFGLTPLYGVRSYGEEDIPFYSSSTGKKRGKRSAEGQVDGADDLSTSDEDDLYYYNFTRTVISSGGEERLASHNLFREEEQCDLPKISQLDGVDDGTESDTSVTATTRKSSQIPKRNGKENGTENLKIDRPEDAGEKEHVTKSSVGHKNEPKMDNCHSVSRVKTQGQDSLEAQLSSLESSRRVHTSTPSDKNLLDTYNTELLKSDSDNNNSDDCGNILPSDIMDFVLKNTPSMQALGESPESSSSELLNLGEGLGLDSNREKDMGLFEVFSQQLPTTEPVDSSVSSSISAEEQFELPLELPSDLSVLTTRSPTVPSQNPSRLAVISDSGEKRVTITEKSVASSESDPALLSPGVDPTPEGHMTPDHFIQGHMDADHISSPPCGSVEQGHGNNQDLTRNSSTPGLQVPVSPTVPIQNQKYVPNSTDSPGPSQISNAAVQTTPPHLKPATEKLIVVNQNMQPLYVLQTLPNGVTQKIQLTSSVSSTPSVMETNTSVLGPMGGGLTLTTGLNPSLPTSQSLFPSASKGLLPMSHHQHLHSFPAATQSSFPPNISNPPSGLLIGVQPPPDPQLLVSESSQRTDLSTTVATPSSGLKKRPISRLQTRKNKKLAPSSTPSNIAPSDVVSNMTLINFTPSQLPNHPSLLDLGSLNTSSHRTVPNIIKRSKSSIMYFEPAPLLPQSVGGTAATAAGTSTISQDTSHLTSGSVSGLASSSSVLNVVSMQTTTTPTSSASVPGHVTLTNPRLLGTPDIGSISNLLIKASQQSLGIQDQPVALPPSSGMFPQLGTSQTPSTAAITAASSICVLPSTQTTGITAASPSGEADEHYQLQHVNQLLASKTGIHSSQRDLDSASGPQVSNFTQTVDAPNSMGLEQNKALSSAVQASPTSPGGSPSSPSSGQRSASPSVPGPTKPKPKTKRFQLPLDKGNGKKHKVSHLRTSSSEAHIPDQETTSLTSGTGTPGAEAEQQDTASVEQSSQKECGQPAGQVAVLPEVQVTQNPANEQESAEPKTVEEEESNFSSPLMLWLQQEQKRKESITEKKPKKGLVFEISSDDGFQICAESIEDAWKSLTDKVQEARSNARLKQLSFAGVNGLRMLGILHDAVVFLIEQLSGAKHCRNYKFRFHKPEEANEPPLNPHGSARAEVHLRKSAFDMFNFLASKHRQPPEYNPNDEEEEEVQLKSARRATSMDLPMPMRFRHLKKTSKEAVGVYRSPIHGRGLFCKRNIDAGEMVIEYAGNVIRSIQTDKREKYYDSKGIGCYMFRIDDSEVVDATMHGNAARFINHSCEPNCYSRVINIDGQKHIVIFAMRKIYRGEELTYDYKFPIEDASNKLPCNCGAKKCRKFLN

These compounds were tested against Histone-lysine N-methyltransferase 2A (Homo sapiens) (UniProt Q03164) (assay: qHTS Fluorescence Polarization Assay for Inhibitors of MLL CXXC domain - DNA interaction). Details: MLL-CXXC / FITC-HOXA9 DNA fluorescence polarization; series mostly up to 115 µM.
Summary of the method: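 Steps: dispense CXXC domain solution (7 uM) → pin compounds or unlabeled HOX-A9 DNA control → 5 min ambient → add FLSN-HOX-A9 solution (50 nM) → spin → 30 min ambient → fluorescence polarization. Tris pH 7.5/NaCl/DTT/BSA buffer.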
Potency is read from the fitted curve at half-maximal effect.

SMILES	Potency
CCOC(=O)/C(C#N)=C\c1ccc(N2CCN(C/C=C/c3ccccc3)CC2)cc1	inconclusive: 56.2 µM [fluorescent, side channel, single point]
COc1ccc(OC)c(Nc2nc3ccc(C)cc3n3cnnc23)c1	inconclusive: 11.2 µM [fluorescent, side channel, partial curve]
Cc1nc(C#N)c(N/N=C/c2cccc(Cl)c2)o1	inactive
CN1CCc2c(sc(/N=C/c3c[nH]c4ccccc34)c2C#N)C1	inconclusive: 28.2 µM [quencher, side channel, partial curve, poor fit]
O=C(CSc1c2c(nc3cc(Cl)ccc13)CCCC2)NCCCN1CCOCC1	inactive
COc1ccccc1C(=O)NCC(=O)N/N=C/c1cc(Br)ccc1OC(=O)/C=C\c1ccco1	inactive
CC(CC12CC3CC(CC(C3)C1)C2)NCc1ccccc1O (centres undefined)	inconclusive: 39.8 µM [quencher, side channel, partial curve]
Cc1ccc(N(C)/N=C/c2ccc(Cl)cc2Cl)nn1	inconclusive: 1.26 µM [fluorescent, side channel, partial curve, poor fit]
Cc1oc(C)c2c(=O)ccc3c(c12)OC(N)=C(C#N)C3c1ccccc1 (centres undefined)	inconclusive: 28.2 µM [fluorescent, side channel, partial curve]
O=C1Cc2ccccc2C(=O)N1OCc1ccc(Cl)cc1Cl	inactive
COc1ccc(OCC(=O)Nc2cccc(-c3nc4ccccc4[nH]3)c2)cc1	inactive
Oc1ccc(-c2n[nH]c(=S)n2Cc2ccccc2)cc1	inconclusive: 15.8 µM [quencher, side channel, single point]
Cc1ccc2nc(/C(C#N)=C/c3ccc(-c4ccccc4C(=O)O)o3)[nH]c2c1	inconclusive: 15.8 µM [fluorescent, side channel, single point]
O=C(O)CCCN1C(=O)/C(=C/c2ccncc2)SC1=S	inconclusive: 56.2 µM [inhibitor, partial curve, poor fit]
N#CC1=C(S)N(c2ccccc2)C(c2ccc(-c3cccc(Cl)c3)o2)NC1=O (centres undefined)	inactive
Cc1ccc(C#CC(C)(O)C(C)(C)C)cn1 (centres undefined)	inconclusive: 100 µM [quencher, side channel, partial curve]
O=C(Nc1nc2ccccc2s1)Nc1ccc([N+](=O)[O-])cc1Cl	inconclusive: 89.1 µM [inhibitor, single point]
Cc1ccc(NC(=O)CN2C(=O)N/C(=C/c3ccco3)C2=O)cc1	inactive
Cc1ccccc1NC(=O)CSc1ccc(-c2cccnc2)nn1	inconclusive: 15.8 µM [quencher, side channel, single point]
CCCCCCCc1c(C)nc(N2CCOCC2)[nH]c1=O	inconclusive: 5.01 µM [fluorescent, side channel, partial curve]

3 entries from above, ordered by count of non-hydrogen atoms, descending.
SMILES	Potency
Cc1ccc(NC(=O)CN2C(=O)N/C(=C/c3ccco3)C2=O)cc1	inactive
CN1CCc2c(sc(/N=C/c3c[nH]c4ccccc34)c2C#N)C1	inconclusive: 28.2 µM [quencher, side channel, partial curve, poor fit]
Cc1nc(C#N)c(N/N=C/c2cccc(Cl)c2)o1	inactive

Next part:

SMILES	Potency
CC(C)Cn1c(O)c(N=NC(=O)c2cccc(S(=O)(=O)N3CCCCC3)c2)c2ccccc21	inconclusive: 10 µM [fluorescent, side channel, single point]
COC(=O)Cc1c(CSc2ccccc2)oc2ccc(O)c(CN(C)C)c12	inconclusive: 89.1 µM [inhibitor, single point]
COc1ccc2nc3ccccc3nc2c1NC(=O)c1ccccc1Cl	inconclusive: 63.1 µM [fluorescent, side channel, single point]
Cc1cccc(NC(=O)CNC(=O)COC(=O)CCS(=O)(=O)c2ccccc2)c1C	inconclusive: 14.1 µM [fluorescent, side channel, single point]
Cc1oc(-c2cccs2)nc1CN1CCN(C2CCCC2)C(CCO)C1 (centres undefined)	inactive
Cc1c(CN(C)C)c2c(n1Cc1ccccc1)C(=O)c1ccc(Br)cc1-2	inconclusive: 11.2 µM [quencher, side channel, partial curve]
CCCCc1nc(C(N)=O)c2[nH]c(=O)n(-c3ccc(OC)cc3OC)c2n1	inconclusive: 31.6 µM [fluorescent, side channel, partial curve]
Cc1ccc(S(=O)(=O)NN2C(=O)/C(=C/c3cccs3)SC2=S)cc1	inconclusive: 1.41 µM [inhibitor, full curve]
CCc1ccc(/C=C2\SC(=S)N(CCCC(=O)Nc3ccccn3)C2=O)cc1	inconclusive: 70.8 µM [fluorescent, side channel, single point]
CC(C)=CCN1CCN(Cc2cccn2-c2nccs2)CC1CCO (centres undefined)	inconclusive: 8.91 µM [inhibitor, single point]
COc1ccc(CCNC(=O)c2ccccc2SC)cc1	inconclusive: 1 µM [fluorescent, side channel, full curve, poor fit]
COc1ccc(/C=C2\SC(=O)NC2=S)cc1OC	inconclusive: 31.6 µM [fluorescent, side channel, single point]
COc1ccc2cc(C(N)=O)c(=Nc3ccccc3)oc2c1	inactive
CC(=O)c1ccc2c3c(ccc(O)c13)CC2	inactive
C#CCOCCOCCOCCNc1nc(N2CCN(C(=O)C(Cc3cc4ccccc4[nH]3)n3cc(C(N)Cc4ccc(O)cc4)nn3)CC2)nc(N2CCN(C(=O)C(Cc3cc4ccccc4[nH]3)n3cc(C(N)Cc4ccc(O)cc4)nn3)CC2)n1 (centres undefined)	inconclusive: 25.1 µM [quencher, side channel, partial curve]
CCOc1ccc2nc(NC3=NC(C)(C)C=C(C)N3)nc(C)c2c1	inconclusive: 10 µM [quencher, side channel, full curve, poor fit]
NCC12CC3CC(C1)CC(c1ccc(Br)cc1)(C3)C2	inconclusive: 15.8 µM [fluorescent, side channel, single point]
Cc1nnc(NC(=O)c2c(-c3ccccc3)noc2C)s1	inactive
C=CCNC(=O)c1sccc1Oc1ccc(F)cc1[N+](=O)[O-]	inconclusive: 15.8 µM [fluorescent, side channel, single point]
